Tested on: K562 cells
Assay: K562 cell viability assay (resazurin)
Type: cell-based, human
Conditions: SI = CC50 normal cell (WSS-1)/CC50 cancer cell (K562)

## Cc1ccc(Nc2ccc3cccc(Cl)c3n2)cc1Nc1nccc(-c2cccnc2)n1 [2h, N^1-(8-Chloroquinolin-2-yl)-4-methyl-N^3-(4-(pyridin-3-yl)pyrimidin-2-yl)benzene-1,3-diamine]
  SI WSS-1/K562: 0.8

## Cc1ccc(Nc2ccnc3ccccc23)cc1Nc1nccc(-c2cccnc2)n1 [2g, 4-Methyl-N^3-(4-(pyridin-3-yl)pyrimidin-2-yl)-N^1-(quinolin-4-yl)benzene-1,3-diamine]
  SI WSS-1/K562: 0.2

— paper PMC8950477 (Pharmaceuticals, 2022)
